Data as given in PubChem BioAssay AID686938 (Drosophila RNAi Screening Center, 2013)
The deposit covers about 23,000 reagents; below is an unselected part of those that have a named target and a result. In the full data, 75 (0.33%) are marked active. 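Raw plate signals without normalisation; calls rest on plate z-scores that were not deposited; ratio present for only 364 wells.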 Entries without a mark were called inactive. Reagents against one gene are numbered here. A plus sign joins genes that one reagent is predicted to hit. The record does not give: the dose of the treatment.

Assay: 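Knock-downs reducing store-operated calcium influx in Drosophila cells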 (primary screen)
Cell system: Drosophila S2R+ cells
Reagent: long dsRNA against Drosophila genes, about 0.25 µg dsRNA per well, roughly 10,000 cells
Timing: 5 days of knock-down before the calcium assay
Treatment: thapsigargin (SERCA pump blocker) to empty calcium stores; entry signal taken 4 min after adding it
Read-out: 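Duplicate raw fluo-4 intensities per well from a plate reader, at rest and four minutes after thapsigargin emptied calcium stores; entry-to-rest ratio filled for only some wells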
Scale: calcium entry signal: higher = stronger calcium signal after store depletion; resting calcium signal: higher = higher resting calcium signal
Units: calcium entry signal in fluorescence units; resting calcium signal in fluorescence units
Active means: 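Called when the plate z-score of the entry-to-rest ratio, mean of duplicates, falls below −3; wells with low overall dye signal (Fmax z below −2) or more than five off-targets excluded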
Calls: active = strongly reduced calcium entry; inactive = no strong reduction

dpr6 (defective proboscis extension response 6) #1: calcium entry signal, replicate 1 = 1.90e7 (active); calcium entry signal, replicate 2 = 1.73e7; resting calcium signal, replicate 1 = 1.25e7; resting calcium signal, replicate 2 = 1.21e7
dpr6 (defective proboscis extension response 6) #2: calcium entry signal, replicate 1 = 2.62e7; calcium entry signal, replicate 2 = 3.57e7; resting calcium signal, replicate 1 = 1.33e7; resting calcium signal, replicate 2 = 1.63e7
dpr6 (defective proboscis extension response 6) #3: calcium entry signal, replicate 1 = 3.35e7; calcium entry signal, replicate 2 = 2.04e7; resting calcium signal, replicate 1 = 1.51e7; resting calcium signal, replicate 2 = 1.11e7
CG12817 + CG12420: calcium entry signal, replicate 1 = 3.53e7; calcium entry signal, replicate 2 = 4.48e7; resting calcium signal, replicate 1 = 1.59e7; resting calcium signal, replicate 2 = 2.33e7
Jheh3 (Juvenile hormone epoxide hydrolase 3): calcium entry signal, replicate 1 = 2.46e7; calcium entry signal, replicate 2 = 2.05e7; resting calcium signal, replicate 1 = 1.23e7; resting calcium signal, replicate 2 = 1.08e7
MKP-4 (MAPK Phosphatase 4): calcium entry signal, replicate 1 = 2.06e7; calcium entry signal, replicate 2 = 2.47e7; resting calcium signal, replicate 1 = 1.15e7; resting calcium signal, replicate 2 = 1.09e7
tctn + B9d2: calcium entry signal, replicate 1 = 3.51e7; calcium entry signal, replicate 2 = 2.98e7; resting calcium signal, replicate 1 = 1.87e7; resting calcium signal, replicate 2 = 1.46e7
Ir85a (Ionotropic receptor 85a): calcium entry signal, replicate 1 = 5.50e7; calcium entry signal, replicate 2 = 4.18e7; resting calcium signal, replicate 1 = 2.67e7; resting calcium signal, replicate 2 = 1.97e7
CG10602: calcium entry signal, replicate 1 = 4.83e7; resting calcium signal, replicate 1 = 2.34e7
Slik (Sterile20-like kinase): calcium entry signal, replicate 1 = 3.96e7; resting calcium signal, replicate 1 = 2.17e7
niki (nimA-like kinase): calcium entry signal, replicate 1 = 3.23e7; calcium entry signal, replicate 2 = 4.21e7; resting calcium signal, replicate 1 = 1.52e7; resting calcium signal, replicate 2 = 1.78e7
CG10962: calcium entry signal, replicate 1 = 3.26e7; calcium entry signal, replicate 2 = 3.32e7; resting calcium signal, replicate 1 = 1.58e7; resting calcium signal, replicate 2 = 1.52e7
CG9154: calcium entry signal, replicate 1 = 5.24e7; resting calcium signal, replicate 1 = 3.04e7
CG33475: calcium entry signal, replicate 1 = 4.23e7; calcium entry signal, replicate 2 = 3.41e7; resting calcium signal, replicate 1 = 2.00e7; resting calcium signal, replicate 2 = 1.49e7
